Source: ChEMBL document CHEMBL3988442, “University of Dundee, Small-Polar-MMV Screening Library” (2021).

Amino acid sequences for entries named in this document (tags omitted). Residues count along the entry.
UniProt I6X8D2, whole entry: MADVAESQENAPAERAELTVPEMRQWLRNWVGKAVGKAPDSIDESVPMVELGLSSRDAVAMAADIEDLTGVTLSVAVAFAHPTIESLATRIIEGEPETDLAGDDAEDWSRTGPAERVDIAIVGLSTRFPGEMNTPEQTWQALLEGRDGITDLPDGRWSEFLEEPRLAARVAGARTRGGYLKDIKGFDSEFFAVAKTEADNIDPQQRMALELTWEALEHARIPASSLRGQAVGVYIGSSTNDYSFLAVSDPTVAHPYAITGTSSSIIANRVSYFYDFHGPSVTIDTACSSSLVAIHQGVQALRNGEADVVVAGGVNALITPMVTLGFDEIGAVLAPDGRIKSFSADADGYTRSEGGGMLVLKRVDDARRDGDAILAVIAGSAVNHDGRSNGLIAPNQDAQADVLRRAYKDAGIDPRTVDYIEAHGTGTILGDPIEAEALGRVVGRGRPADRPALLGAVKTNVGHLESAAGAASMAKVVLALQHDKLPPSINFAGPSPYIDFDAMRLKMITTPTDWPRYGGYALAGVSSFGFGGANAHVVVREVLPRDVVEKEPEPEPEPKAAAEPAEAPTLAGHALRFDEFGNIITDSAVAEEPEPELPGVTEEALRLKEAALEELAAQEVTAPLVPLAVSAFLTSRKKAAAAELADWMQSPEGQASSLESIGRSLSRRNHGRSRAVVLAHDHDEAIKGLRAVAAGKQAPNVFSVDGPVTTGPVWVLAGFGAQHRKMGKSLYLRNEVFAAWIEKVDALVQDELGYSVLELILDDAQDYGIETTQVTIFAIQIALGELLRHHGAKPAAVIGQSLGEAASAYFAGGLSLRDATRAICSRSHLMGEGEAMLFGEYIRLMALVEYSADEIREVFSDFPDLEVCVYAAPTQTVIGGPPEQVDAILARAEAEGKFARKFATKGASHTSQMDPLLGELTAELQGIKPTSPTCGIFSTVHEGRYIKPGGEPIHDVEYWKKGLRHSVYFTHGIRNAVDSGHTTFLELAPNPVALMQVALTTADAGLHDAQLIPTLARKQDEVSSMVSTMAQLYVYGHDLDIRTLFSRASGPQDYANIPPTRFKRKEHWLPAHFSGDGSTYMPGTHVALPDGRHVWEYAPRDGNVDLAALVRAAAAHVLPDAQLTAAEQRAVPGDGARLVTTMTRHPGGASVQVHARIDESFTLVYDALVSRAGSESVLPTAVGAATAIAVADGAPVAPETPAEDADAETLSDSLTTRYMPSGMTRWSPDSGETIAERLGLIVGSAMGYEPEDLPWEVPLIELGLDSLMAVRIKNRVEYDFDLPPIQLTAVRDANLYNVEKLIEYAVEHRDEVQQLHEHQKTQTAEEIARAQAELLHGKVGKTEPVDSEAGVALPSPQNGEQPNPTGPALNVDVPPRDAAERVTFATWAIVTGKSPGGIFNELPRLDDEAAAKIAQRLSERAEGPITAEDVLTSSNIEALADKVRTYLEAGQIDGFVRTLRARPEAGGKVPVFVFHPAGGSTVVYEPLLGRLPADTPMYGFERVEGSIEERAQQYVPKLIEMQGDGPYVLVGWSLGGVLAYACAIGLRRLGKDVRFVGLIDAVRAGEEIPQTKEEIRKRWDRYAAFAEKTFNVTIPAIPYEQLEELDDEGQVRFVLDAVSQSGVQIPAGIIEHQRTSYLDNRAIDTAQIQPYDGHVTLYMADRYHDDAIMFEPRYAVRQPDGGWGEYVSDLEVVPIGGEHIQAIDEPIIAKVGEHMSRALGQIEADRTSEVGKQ
UniProt Q8IDJ8, 1-583: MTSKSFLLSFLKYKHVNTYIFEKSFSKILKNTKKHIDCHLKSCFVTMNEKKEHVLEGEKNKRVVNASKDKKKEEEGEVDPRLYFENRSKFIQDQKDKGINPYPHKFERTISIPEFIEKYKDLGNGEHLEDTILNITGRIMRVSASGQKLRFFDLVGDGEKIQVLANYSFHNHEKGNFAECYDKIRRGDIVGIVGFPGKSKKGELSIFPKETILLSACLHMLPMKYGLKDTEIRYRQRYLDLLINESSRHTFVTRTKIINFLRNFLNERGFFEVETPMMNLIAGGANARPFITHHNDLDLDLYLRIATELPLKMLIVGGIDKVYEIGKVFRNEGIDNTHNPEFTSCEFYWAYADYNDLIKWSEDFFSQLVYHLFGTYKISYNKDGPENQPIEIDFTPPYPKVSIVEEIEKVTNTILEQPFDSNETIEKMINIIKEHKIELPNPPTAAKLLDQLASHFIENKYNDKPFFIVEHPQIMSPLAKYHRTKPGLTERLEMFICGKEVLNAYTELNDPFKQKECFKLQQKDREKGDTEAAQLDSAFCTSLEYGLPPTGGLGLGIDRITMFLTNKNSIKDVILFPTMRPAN
UniProt A4I591, 1-473: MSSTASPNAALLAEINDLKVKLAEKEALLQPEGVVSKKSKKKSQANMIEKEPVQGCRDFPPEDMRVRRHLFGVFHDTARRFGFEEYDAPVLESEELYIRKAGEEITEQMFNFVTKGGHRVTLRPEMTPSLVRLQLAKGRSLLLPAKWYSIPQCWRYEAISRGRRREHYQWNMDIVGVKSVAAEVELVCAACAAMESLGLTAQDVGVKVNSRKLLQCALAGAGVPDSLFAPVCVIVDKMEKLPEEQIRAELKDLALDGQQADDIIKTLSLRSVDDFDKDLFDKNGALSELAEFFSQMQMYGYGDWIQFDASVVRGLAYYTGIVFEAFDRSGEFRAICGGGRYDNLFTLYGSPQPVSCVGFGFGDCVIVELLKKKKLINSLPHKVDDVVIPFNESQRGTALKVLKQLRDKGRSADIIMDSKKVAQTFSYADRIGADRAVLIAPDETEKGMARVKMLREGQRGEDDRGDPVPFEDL
UniProt P9WFT3, whole entry: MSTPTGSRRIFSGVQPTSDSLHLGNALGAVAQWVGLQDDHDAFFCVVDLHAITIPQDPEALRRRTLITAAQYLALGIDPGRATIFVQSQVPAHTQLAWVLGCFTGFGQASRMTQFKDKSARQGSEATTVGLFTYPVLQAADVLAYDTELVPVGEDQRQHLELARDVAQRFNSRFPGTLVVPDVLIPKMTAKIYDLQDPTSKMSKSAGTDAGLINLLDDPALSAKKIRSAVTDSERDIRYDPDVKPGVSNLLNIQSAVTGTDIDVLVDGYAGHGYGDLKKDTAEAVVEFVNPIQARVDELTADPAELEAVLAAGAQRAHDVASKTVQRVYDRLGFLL

Pks13 thioesterase: 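Polyketide synthase Pks13, Mycobacterium tuberculosis (UniProt I6X8D2). Enzyme assay of the thioesterase domain of polyketide synthase 13; the read-out is not stated. Compounds at 30 µM. The record gives no direction; the compounds picked for IC50 retests had high values, so higher reads as stronger inhibition. Of about 67,000 compounds tested this way, about 300 (0.46%) reached 50% or more in at least one test.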
PfKRS1: 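Lysine-tRNA ligase, Plasmodium falciparum 3D7 (UniProt Q8IDJ8). Enzyme assay of the cytosolic lysyl-tRNA synthetase in 384-well plates, read by luminescence. Concentration: 30 µM. Direction is inferred from only a few compounds that gave an IC50; most scored high, so higher reads as stronger inhibition. Of about 69,000 compounds tested this way, about 49 (0.071%) reached 50% or more in at least one test.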
LiHisRS: 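Enzyme assay of histidyl-tRNA synthetase; the read-out is not stated. Target: Histidine-tRNA ligase, Leishmania infantum (UniProt A4I591). Tested at 30 µM. Direction is inferred from retests: higher values go with stronger inhibition. The assay is labelled LdHisRS but filed under L. infantum. Size under these conditions: about 69,000 compounds, about 410 of them at 50% or above in at least one test.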
MtTrpRS: 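Tryptophan-tRNA ligase, Mycobacterium tuberculosis (UniProt P9WFT3). Enzyme assay of tryptophanyl-tRNA synthetase; the read-out is not stated. Compounds at 10 µM. Direction is not recorded; retested compounds ran higher, which suggests that high means inhibition. About 65,000 compounds were tested under these conditions; 0.098% (about 64) showed 50% or more at least once.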

Values are the deposited “Percent Effect”, in %.
How 0% and 100% were set is not recorded. Most values in the screen are low, and negative values occur.
This is an unselected part of the compounds tested.

- CC(C)n1cnnc1C1CCCN(S(=O)(=O)CCCC#N)C1 (stereo not given) : Pks13 thioesterase: 2.594%; PfKRS1: 6.083%; LiHisRS: 24.69%; MtTrpRS: 4.113%
- CS(=O)(=O)N1CCN(Cc2ccc(F)cc2Br)CC1 : Pks13 thioesterase: 2.33%; PfKRS1: -2.43%; LiHisRS: 14.89%; MtTrpRS: 4.886%
- Cc1ccc(CN(Cc2cc(C)no2)C2CC2)cc1 : Pks13 thioesterase: -15.19%; PfKRS1: -1.105%; LiHisRS: 7.08%; MtTrpRS: 0.4301%
- COCCc1nnc(NC(=O)CCCc2ccccc2)o1 : Pks13 thioesterase: -40.82%; PfKRS1: 2.58%; LiHisRS: 28.57%; MtTrpRS: -1.236%
- COc1ccc(C(=O)N2CCCC3(CCCC(=O)N3C)C2)cc1 (stereo not given) : Pks13 thioesterase: -23.17%; PfKRS1: 6.966%; LiHisRS: 21.1%; MtTrpRS: -2.156%
- Cc1ccc(N2CCc3ncnc(N(C)C)c3CC2)nn1 : Pks13 thioesterase: -10.1%; PfKRS1: 2.163%; LiHisRS: 2.703%
- CC(C)n1cc(CN2CCCN(C(=O)c3cc(Cl)c[nH]3)CC2)cn1 : Pks13 thioesterase: -11.98%; PfKRS1: 7.441%; LiHisRS: 14.29%; MtTrpRS: 1.174%
- COc1ccc(-c2c(C(C)C)nn3c(=N)c(C#N)n[nH]c23)cc1 : Pks13 thioesterase: 8.633%; PfKRS1: 10.19%; LiHisRS: 15.22%; MtTrpRS: 2.251%
- CCc1ccsc1C(=O)N1CCN(C(=O)CC(F)(F)F)CC1 : Pks13 thioesterase: -0.7584%; PfKRS1: 2.535%; LiHisRS: 21.88%; MtTrpRS: -3.595%
- Cc1ccccc1CNC(=O)N1C[C@H]2C[C@H](C(=O)N(C)C)[C@@H](C1)O2 : Pks13 thioesterase: -24.63%; PfKRS1: -0.1141%; LiHisRS: 2.632%; MtTrpRS: -0.7214%
- CCCC1COCCN1Cc1ccc(C(=O)O)cc1 (stereo not given) : Pks13 thioesterase: -1.98%; PfKRS1: 2.365%; LiHisRS: 20%; MtTrpRS: 2.055%
- COC(=O)c1cccc(C(=O)N2CCN(c3ccc(Cl)cc3)CC2)n1 : Pks13 thioesterase: 19.33%; PfKRS1: 7.059%; LiHisRS: 17.98%; MtTrpRS: 4.402%
- Cc1cccnc1CC(C)N(C)Cc1cccs1 (stereo not given) : Pks13 thioesterase: -46.2%; PfKRS1: 3.9%; LiHisRS: 6.806%; MtTrpRS: -3.95%
- CCCC(C)CS(=O)(=O)NCc1cccnc1OC (stereo not given) : Pks13 thioesterase: -8.657%; PfKRS1: 3.957%; LiHisRS: 17.14%; MtTrpRS: 1.009%
- CCC(Oc1ccc(N(C)S(C)(=O)=O)cc1)C(N)=O (stereo not given) : Pks13 thioesterase: -19.17%; PfKRS1: 0.5444%; LiHisRS: 1.493%; MtTrpRS: -4.095%
- CN(C)S(=O)(=O)NCC1CCN(Cc2ccccc2F)CC1 : Pks13 thioesterase: -39.68%; PfKRS1: 4.875%; LiHisRS: 3.109%; MtTrpRS: 0.1022%
- COc1cccc(OCC(=O)NS(=O)(=O)c2cc(F)ccc2F)c1 : Pks13 thioesterase: -31.38%; PfKRS1: 6.993%; LiHisRS: 9.589%; MtTrpRS: 0.2646%
- N[C@H]1CN(S(=O)(=O)c2ccccc2)C[C@@H]1C1CC1 : Pks13 thioesterase: 10.67%; PfKRS1: -2.748%; LiHisRS: 11.29%; MtTrpRS: 11.2%

Repeated from the top, 2 entries:

- CC(C)n1cnnc1C1CCCN(S(=O)(=O)CCCC#N)C1 (stereo not given) | Pks13 thioesterase: 2.594%; PfKRS1: 6.083%; LiHisRS: 24.69%; MtTrpRS: 4.113%
- CS(=O)(=O)N1CCN(Cc2ccc(F)cc2Br)CC1 | Pks13 thioesterase: 2.33%; PfKRS1: -2.43%; LiHisRS: 14.89%; MtTrpRS: 4.886%